From patent US20110229560A1
Results are given in words; binding and its absence hold for the method and conditions named. In cells and extracts the contact can be indirect. Some binding calls cover weakened binding; strength is not graded here. Where a sequence is shown, tags or fusion partners need not be part of it.

By UniProt entry, the sequences of proteins in these tests, tags left out. Where a name states a change or a piece, a line headed by the entry shows the natural chain unless it says otherwise.
UniProt Q86WI3: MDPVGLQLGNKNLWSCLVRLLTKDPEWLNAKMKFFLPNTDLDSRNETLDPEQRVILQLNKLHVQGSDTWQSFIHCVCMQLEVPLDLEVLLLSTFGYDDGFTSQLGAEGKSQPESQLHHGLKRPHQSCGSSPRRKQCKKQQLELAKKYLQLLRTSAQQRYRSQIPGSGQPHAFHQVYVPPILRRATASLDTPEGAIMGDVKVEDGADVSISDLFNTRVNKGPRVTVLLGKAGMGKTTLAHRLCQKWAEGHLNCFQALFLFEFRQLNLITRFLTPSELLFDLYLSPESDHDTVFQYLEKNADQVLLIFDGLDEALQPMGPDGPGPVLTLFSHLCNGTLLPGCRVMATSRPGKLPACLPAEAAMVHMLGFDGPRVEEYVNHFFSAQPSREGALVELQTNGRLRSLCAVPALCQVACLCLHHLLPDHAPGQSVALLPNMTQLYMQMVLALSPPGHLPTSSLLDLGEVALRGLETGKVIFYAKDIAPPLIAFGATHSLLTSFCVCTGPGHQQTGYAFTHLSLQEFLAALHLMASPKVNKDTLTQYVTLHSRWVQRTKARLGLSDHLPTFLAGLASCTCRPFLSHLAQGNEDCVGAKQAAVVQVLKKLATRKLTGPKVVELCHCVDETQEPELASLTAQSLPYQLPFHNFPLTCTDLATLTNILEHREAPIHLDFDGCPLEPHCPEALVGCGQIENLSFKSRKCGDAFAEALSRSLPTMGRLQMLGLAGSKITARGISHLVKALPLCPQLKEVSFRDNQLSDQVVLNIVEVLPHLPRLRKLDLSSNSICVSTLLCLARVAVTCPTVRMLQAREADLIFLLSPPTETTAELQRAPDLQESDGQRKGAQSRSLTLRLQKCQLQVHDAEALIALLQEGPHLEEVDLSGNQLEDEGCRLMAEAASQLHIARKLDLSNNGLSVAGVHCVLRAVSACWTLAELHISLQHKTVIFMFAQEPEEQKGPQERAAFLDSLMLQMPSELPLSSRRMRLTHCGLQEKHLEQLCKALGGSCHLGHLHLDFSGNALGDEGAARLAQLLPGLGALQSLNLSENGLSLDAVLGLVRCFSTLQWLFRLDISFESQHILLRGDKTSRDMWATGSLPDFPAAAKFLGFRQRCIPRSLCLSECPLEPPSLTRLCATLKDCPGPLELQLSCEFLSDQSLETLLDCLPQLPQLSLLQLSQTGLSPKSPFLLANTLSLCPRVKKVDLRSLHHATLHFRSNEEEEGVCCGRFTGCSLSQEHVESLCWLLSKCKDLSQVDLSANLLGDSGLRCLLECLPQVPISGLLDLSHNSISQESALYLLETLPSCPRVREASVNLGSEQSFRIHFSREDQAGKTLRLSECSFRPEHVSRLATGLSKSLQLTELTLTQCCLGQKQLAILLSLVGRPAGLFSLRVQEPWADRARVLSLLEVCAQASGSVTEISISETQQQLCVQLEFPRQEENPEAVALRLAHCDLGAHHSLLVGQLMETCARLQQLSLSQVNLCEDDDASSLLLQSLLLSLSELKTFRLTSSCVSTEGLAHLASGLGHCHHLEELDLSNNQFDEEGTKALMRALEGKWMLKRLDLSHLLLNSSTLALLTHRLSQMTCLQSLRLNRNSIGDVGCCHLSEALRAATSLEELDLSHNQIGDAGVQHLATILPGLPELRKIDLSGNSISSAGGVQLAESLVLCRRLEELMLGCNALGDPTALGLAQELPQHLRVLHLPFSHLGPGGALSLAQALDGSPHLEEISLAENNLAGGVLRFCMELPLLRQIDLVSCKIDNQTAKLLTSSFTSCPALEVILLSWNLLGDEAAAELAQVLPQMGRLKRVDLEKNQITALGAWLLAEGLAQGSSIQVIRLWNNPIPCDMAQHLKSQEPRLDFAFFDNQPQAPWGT

What was measured:
[1] = target: T1, Flag-tagged IKKα (UniProt O15111); test: restatement of the co-IP results
T1 sequence (looked up): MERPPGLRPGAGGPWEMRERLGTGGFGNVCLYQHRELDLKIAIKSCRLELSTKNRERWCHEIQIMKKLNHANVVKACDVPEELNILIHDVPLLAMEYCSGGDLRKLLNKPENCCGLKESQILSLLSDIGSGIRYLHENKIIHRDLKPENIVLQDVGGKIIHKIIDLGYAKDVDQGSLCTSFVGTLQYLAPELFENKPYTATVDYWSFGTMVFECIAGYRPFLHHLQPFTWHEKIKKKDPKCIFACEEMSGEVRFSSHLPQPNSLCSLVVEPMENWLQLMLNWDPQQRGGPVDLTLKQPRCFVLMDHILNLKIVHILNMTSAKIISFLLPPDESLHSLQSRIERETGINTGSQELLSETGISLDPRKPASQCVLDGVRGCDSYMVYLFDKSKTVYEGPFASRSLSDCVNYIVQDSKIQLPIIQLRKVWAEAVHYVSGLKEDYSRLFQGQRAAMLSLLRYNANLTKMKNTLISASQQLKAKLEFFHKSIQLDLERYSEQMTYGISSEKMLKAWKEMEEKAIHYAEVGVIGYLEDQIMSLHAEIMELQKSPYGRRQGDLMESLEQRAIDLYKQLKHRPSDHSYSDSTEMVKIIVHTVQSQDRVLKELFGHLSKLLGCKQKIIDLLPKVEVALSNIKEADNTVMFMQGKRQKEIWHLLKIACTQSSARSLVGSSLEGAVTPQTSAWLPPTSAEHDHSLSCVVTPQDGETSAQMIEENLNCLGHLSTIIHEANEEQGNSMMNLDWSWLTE

[2] = target: T2, IKKβ-KD (amino-terminal kinase domain construct of IKKβ, Flag-tagged) (UniProt O14920); test: restatement of the co-IP results
T2 sequence (looked up): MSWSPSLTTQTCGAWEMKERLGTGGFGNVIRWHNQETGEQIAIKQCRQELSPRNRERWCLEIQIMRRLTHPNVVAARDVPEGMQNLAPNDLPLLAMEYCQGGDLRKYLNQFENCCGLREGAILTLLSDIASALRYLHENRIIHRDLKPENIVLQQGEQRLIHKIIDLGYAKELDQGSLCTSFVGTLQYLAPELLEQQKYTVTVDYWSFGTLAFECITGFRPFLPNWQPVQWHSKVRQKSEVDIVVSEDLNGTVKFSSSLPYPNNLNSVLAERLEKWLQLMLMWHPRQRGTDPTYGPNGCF

[3] = target: T3, Flag-RIG-I (UniProt O95786); test: co-IP (anti-HA beads) and Western blot (anti-Flag), transfected 293T cells
T3 sequence (looked up): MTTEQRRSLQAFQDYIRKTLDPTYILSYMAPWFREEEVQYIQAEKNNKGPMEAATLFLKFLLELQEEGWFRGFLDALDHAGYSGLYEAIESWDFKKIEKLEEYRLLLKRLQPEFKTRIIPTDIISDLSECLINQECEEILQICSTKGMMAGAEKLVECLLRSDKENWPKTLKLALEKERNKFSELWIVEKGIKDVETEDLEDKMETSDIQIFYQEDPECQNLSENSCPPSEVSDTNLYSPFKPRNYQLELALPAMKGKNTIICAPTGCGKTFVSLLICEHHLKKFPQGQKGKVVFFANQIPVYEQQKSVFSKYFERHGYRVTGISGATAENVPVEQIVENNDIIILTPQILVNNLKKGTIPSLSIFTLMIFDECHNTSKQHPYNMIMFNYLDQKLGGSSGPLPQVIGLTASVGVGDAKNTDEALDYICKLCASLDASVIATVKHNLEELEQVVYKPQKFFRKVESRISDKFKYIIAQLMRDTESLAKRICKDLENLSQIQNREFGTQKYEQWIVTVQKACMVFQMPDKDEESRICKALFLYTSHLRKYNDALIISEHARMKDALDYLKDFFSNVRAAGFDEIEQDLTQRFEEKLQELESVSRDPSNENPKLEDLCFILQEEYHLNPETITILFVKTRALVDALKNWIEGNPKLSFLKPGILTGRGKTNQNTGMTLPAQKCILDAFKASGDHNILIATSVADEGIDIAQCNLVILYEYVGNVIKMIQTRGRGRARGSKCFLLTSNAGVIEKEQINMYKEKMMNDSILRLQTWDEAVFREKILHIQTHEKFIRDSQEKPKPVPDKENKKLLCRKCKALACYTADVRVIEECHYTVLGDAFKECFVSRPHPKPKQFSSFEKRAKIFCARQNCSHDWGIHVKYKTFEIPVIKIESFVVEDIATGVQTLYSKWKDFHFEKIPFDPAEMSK

[4] = target: T4, Flag-tagged IKKβ (full length) (UniProt O14920); test: as above
T4 sequence (looked up): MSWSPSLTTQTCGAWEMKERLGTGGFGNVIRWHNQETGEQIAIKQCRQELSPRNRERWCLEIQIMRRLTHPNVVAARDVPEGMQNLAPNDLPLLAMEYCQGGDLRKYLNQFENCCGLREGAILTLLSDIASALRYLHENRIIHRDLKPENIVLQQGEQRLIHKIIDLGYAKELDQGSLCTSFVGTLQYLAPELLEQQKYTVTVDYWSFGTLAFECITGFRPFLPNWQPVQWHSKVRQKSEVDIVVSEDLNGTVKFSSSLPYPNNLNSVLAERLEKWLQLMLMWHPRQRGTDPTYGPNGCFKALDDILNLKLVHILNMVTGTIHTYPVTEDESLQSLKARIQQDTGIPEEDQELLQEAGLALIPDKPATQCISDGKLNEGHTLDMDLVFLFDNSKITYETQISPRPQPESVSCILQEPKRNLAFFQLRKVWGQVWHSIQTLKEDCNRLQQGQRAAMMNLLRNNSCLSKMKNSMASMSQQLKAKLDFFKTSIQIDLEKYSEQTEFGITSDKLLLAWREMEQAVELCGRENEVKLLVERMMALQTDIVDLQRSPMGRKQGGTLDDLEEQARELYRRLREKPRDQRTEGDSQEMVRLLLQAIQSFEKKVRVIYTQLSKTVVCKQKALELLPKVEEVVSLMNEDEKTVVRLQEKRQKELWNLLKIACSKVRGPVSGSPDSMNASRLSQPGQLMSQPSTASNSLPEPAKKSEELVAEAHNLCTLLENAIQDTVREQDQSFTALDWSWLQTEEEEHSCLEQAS

Measured: binding

HA-tagged NLRC5 (human NLRC5, full length) (from UniProt Q86WI3 1-1866)
binds: all assays above
